In article PMC7819943, “Rice protein-binding microarrays: a tool to detect cis-acting elements near promoter regions in rice”:
The list shows a part of the results.

Target: T1, OsSMF1 (Oryza sativa, UniProt Q6ZLB0 1-436)
T1 sequence: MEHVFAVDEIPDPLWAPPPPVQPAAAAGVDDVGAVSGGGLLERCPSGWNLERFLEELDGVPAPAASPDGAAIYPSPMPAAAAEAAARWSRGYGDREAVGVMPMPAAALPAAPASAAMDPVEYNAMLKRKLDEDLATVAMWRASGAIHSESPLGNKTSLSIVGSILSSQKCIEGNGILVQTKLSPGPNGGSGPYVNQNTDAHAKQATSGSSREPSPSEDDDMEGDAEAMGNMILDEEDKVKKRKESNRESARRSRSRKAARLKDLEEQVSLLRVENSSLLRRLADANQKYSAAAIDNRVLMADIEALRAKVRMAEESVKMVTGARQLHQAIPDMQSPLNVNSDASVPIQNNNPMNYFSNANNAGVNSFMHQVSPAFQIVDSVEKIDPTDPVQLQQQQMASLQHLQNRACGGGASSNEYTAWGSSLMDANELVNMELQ
Test: protein-binding microarray (RPBM); PBS, 2% BSA, 51.3 ng/ul salmon testes DNA, 50 uM zinc acetate, 200 nM TF, 25 C, 1 h; high values mean tight binding
Conditions: protein: recombinant; tags: N-terminal polyhistidine and DsRed monomer fusion (pET32a); chain copies: 2; label: CyDye5-dUTP incorporated in the synthesized complementary strand; 3' TTTTT single-stranded linker to array surface; dsDNA, one strand shown
Outline: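 Transcription factors were made in E. coli BL21-CodonPlus as N-terminal fusions to a polyhistidine tag and DsRed, then purified on Ni–NTA. After primer extension with Cy5-dUTP and blocking with 2% BSA, a custom Agilent array was exposed for 1 h at 25 °C to 200 nM protein in PBS, 2% BSA, salmon testes DNA and 50 µM zinc acetate. Washed arrays were scanned on an Axon 4000B, and the binding signal is per-feature fluorescence intensity in arbitrary units.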

Row | Sequence | binding signal
1 | GTCCCACATAAAAGTGACTCAGCTGATTAGGCCACGTCACCGGAGTCACCTAGTGCAG | 24800 fluorescence intensity (a.u.)
2 | ATTTGCGGATGTGTGAGTGTGACCAGTGATGTGTGCGGGACGGAGTCACCTAGTGCAG | 5840 fluorescence intensity (a.u.)
3 | CAATACATGAAAGTGAATCCTCTAACGTCGTGCAACTTATCGGAGTCACCTAGTGCAG | 3280 fluorescence intensity (a.u.)
4 | TTTCTTCTTCGTCTCCGTCGCCTAGTCGGCTTCGCCTCCGCGGAGTCACCTAGTGCAG | 3200 fluorescence intensity (a.u.)
5 | AAACGGAAGGGGAAACAGAGAGGGAAGGAGGAAGGGGAAGCGGAGTCACCTAGTGCAG | 4600 fluorescence intensity (a.u.)
6 | ATTGATGTTACATGCCTCGCAAGCGATGACACGGCAAGCTCGGAGTCACCTAGTGCAG | 5060 fluorescence intensity (a.u.)
7 | TATATATAAAACGTCAGCAACGGCATGACCATTCGAAAATCGGAGTCACCTAGTGCAG | 5090 fluorescence intensity (a.u.)
8 | TATAGCTTGGGCAATCTCTGTGTTTGCGTTTACCGAGATGCGGAGTCACCTAGTGCAG | 3460 fluorescence intensity (a.u.)
9 | ATATTTAACAACGGATCAAATGATAGGAAAATAATTAATACGGAGTCACCTAGTGCAG | 4700 fluorescence intensity (a.u.)
10 | TGGCCTCTCATCATGTCGTCGACGCCGCCGTCGCCCACCCCGGAGTCACCTAGTGCAG | 3590 fluorescence intensity (a.u.)
11 | GAGGGCGGTTTTGTTGACGCGGCGTCTACGTGGCGGTATTCGGAGTCACCTAGTGCAG | 25900 fluorescence intensity (a.u.)
12 | ATACCATGTTCACGTCATCATGTTACCATGATACCTCGTGCGGAGTCACCTAGTGCAG | 9050 fluorescence intensity (a.u.)
13 | GTTTCTTCAGTTGCTGCCGACTGAGATGGAATTTGGCAATCGGAGTCACCTAGTGCAG | 3720 fluorescence intensity (a.u.)
14 | GAGATCGACACGTTGGTCTACGTGCCTATGCATGTGTTCACGGAGTCACCTAGTGCAG | 4520 fluorescence intensity (a.u.)
15 | CGGTTGCATTTCTCGTCACCATATTCAAATTAAGCCCGCCCGGAGTCACCTAGTGCAG | 3160 fluorescence intensity (a.u.)
16 | ACGAGCCCCACGCCGCCGTGTCCTATCGCCGGCGCCGCATCGGAGTCACCTAGTGCAG | 3940 fluorescence intensity (a.u.)
17 | TGGTCAAGGTCAAGGTCGTCGCTGCCGTGCGGATCCGGCGCGGAGTCACCTAGTGCAG | 3190 fluorescence intensity (a.u.)
18 | CCACTGTCGGTGTCGGCATCGGCGCTGGAGGACCTCGAGCCGGAGTCACCTAGTGCAG | 3140 fluorescence intensity (a.u.)
19 | AACAAATTACAGATTCCACCTATAAACTGCGAGACGGATTCGGAGTCACCTAGTGCAG | 3310 fluorescence intensity (a.u.)
20 | ACTCGCGCCGCCCTGCCCTGTCGTCCCGCCGCATCACCCGCGGAGTCACCTAGTGCAG | 3500 fluorescence intensity (a.u.)
21 | CATTCTCGCGACGACTCGTGCTGACTGCTTCGTCACCAACCGGAGTCACCTAGTGCAG | 7740 fluorescence intensity (a.u.)

From no. 14 as far as 15, as listed above:
Row | Sequence | binding signal
14 | GAGATCGACACGTTGGTCTACGTGCCTATGCATGTGTTCACGGAGTCACCTAGTGCAG | 4520 fluorescence intensity (a.u.)
15 | CGGTTGCATTTCTCGTCACCATATTCAAATTAAGCCCGCCCGGAGTCACCTAGTGCAG | 3160 fluorescence intensity (a.u.)

Carrying on:

Row | Sequence | binding signal
22 | TTGTGGAGGAAGCAATCAAGCAACGAAGAGATGTACATTTCGGAGTCACCTAGTGCAG | 12100 fluorescence intensity (a.u.)
23 | CAAATATTTATTGTAGCATCACATTGTCAAATCATAGCGTCGGAGTCACCTAGTGCAG | 3470 fluorescence intensity (a.u.)
24 | ACTTAATTAATTACGTGTTAATGGACTGCTCCGTTTTCCGCGGAGTCACCTAGTGCAG | 8070 fluorescence intensity (a.u.)
25 | CGAAATTCTGAACCATGCATGCTGACAGGTTTGGCATGCCCGGAGTCACCTAGTGCAG | 5100 fluorescence intensity (a.u.)
26 | TTAGTGAACGGTGCAACGCGTCAAGGACGAGTCAACGCGCCGGAGTCACCTAGTGCAG | 4850 fluorescence intensity (a.u.)
27 | ACCTGCCTGACAACACGTACGTACGTGGAAATCATAAACCCGGAGTCACCTAGTGCAG | 5910 fluorescence intensity (a.u.)
28 | GGTGATTCTATTACTTCTAGGTGACGTATATTTGTCAATGCGGAGTCACCTAGTGCAG | 4680 fluorescence intensity (a.u.)
29 | GCGCATGGCACGCCACGGTGGGCGTCGCCGCGGCCGTGTCCGGAGTCACCTAGTGCAG | 3380 fluorescence intensity (a.u.)
30 | TTGATGTGATGGAAAAGCTAGAAGTTTCAAGAGAAAGTTGCGGAGTCACCTAGTGCAG | 25500 fluorescence intensity (a.u.)
31 | ACCCAGGACCGGACCCAACTCGAATACGGACTCGTGTCACCGGAGTCACCTAGTGCAG | 3770 fluorescence intensity (a.u.)
32 | ATTTATCATTATTAACTAATAATAACATTGATGTAATTAACGGAGTCACCTAGTGCAG | 3400 fluorescence intensity (a.u.)
33 | GGGTGTGTAAGGGTAGGTGGAGGGGTGGGTGATGCGAGATCGGAGTCACCTAGTGCAG | 6050 fluorescence intensity (a.u.)
34 | AGAGAGAGCGTGGGTGGGGTGGGTGCTCTGGGTGACTGGGCGGAGTCACCTAGTGCAG | 6040 fluorescence intensity (a.u.)
35 | GATATGTCCTCCTCCTACGTGGCTATATCCTTATTCTGGTCGGAGTCACCTAGTGCAG | 9960 fluorescence intensity (a.u.)
36 | TTTAAAAGCAATTTTCAAACAATGCATCGTAGTTTTGTGACGGAGTCACCTAGTGCAG | 3530 fluorescence intensity (a.u.)
37 | GAAATTGATGTCCAGGGTGGTTCACCAAAGAAGATAGCTGCGGAGTCACCTAGTGCAG | 3240 fluorescence intensity (a.u.)
38 | GTGTGCACGAAACTGCAACCGTGGCATATTGGCATGCAGGCGGAGTCACCTAGTGCAG | 4070 fluorescence intensity (a.u.)
39 | GCCAGTAGTAGAAGCAGCATCCACGCACGCACCGAACCTTCGGAGTCACCTAGTGCAG | 4450 fluorescence intensity (a.u.)
40 | CTACCCACTCGCGCCGGTCATCGTCATTGTCGCCATGTCCCGGAGTCACCTAGTGCAG | 5340 fluorescence intensity (a.u.)
41 | TCCATATTTACGTCATCAGGACAGCATTGAAAACTTATTGCGGAGTCACCTAGTGCAG | 5770 fluorescence intensity (a.u.)
42 | GCCTTGCACGTATTCACGTCACGCATAAGCTCGATCGAACCGGAGTCACCTAGTGCAG | 4510 fluorescence intensity (a.u.)
